This is a noisy data set.
B1: human tRNA-Pro; a variant is named by its letters at N, in order (parent)
chain: GGCTCGTTGGTCTAGNGGTATGATTCTCGCTTAGGGTGCGAGAGGTCCCGGGTTCNNATCCCGGACGAGCCC

Variants of: B1
Test: tRNA 3' processing efficiency (processed reads / all reads, maximum-likelihood estimate) (fraction); higher = more efficient 3' processing
Settings: HEK293T; construct: no Pol-II promoter ((-)CMV library)

| Variant | tRNA 3' processing efficiency |
| --- | --- |
| CTA T8G G17A A20C T59A | 0.25 |
| CTC G51A | 0.4 |
| CTG A14G T59C | 0.08 |
| GTA G15A G18A T19G | 0.25 |
| ATA T19C C55T | 0.25 |
| GTA G6A T59C | 0.4 |
| TTA G17T A58C | 0.4 |
| TTA A14T G17T A58T | 0.4 |
| TTA G15A A58C | 0.25 |
| GTA A20G A58G T59G | 0.55 |
| GTT A14C G15C T59A | 0.33 |
| GTA T8C T19G T59A | 0.57 |
| GTG A20C T59A | 0.17 |
| GTC T19C T59C | 0.25 |
| GTA T19C T59G | 0.17 |
| ATA T53C A58T | 0.33 |
| CTA T8C G15A T19A | 0.25 |
| CTC G17T | 0.91 |
| ATA G9A C55T | 0.62 |
| GTG A14C G17A T19G | 0.33 |
| GTG A14T G17T T59A | 0.5 |
| GTA T8C G15C T19G | 0.4 |
| GTG A14T T19A | 0.4 |
| CTA G9A T19A T59A | 0.07 |
| GTA G9A A14T T59A | 0.25 |
| CTT C3T A14C | 0.25 |

Random excerpt: seven records from the list

| Variant | tRNA 3' processing efficiency |
| --- | --- |
| CTG A14G T59C | 0.08 |
| CTA G9A T19A T59A | 0.07 |
| CTC G51A | 0.4 |
| GTC T19C T59C | 0.25 |
| ATA T19C C55T | 0.25 |
| CTA T8C G15A T19A | 0.25 |
| CTT C3T A14C | 0.25 |

Remaining list, next part:

| Variant | tRNA 3' processing efficiency |
| --- | --- |
| GTC G9A G18T | 0.57 |
| GTA T8A G15A G17C A20G T59C | 0.5 |
| TTC T19G T59C | 0.5 |
| TTT T19A A20G | 0.14 |
| GTA G17A G18C T53A | 0.25 |
| GTA G9A G15A G18T A58C | 0.4 |
| CTA A14T A58G | 0.4 |
| GTA G15A T19A T59C | 0.25 |
| GTT G2A | 0.62 |
| CTA A58G T59G | 0.52 |
| GTG A58T T59G | 0.57 |
| TTT G18A A58T | 0.25 |
| GTA A14T G15T G18T | 0.4 |
| GTA G1T G2T C3T A58G | 0.25 |
| GTG G17T T19A A20T | 0.2 |
| ATA A14T G17A T19G A58T | 0.33 |
| GTG T19A A58G | 0.25 |
| CTA A20T C55T | 0.25 |
| CTG G18C T59G | 0.25 |
| GTA T8G T19G A58T | 0.4 |
| GTA A14T G17A G18A T59C | 0.2 |
| GTG T19C A20G A58C | 0.29 |
| GTA A14T G17C A20T A58G | 0.25 |
| GTC G36T | 0.67 |
| GTA G15C G17T A58T | 0.33 |
| GTA T8G G9T G17A T59G | 0.4 |

Quoted from the listing:
GTG A14T T19A | tRNA 3' processing efficiency: 0.4
GTA G17A G18C T53A | tRNA 3' processing efficiency: 0.25

Later entries

| Variant | tRNA 3' processing efficiency |
| --- | --- |
| ATA T8C T19G A58C | 0.5 |
| GTA T19A A33G | 0.4 |
| GTA G18C A20T A58T | 0.2 |
| GTT G9T T59C | 0.2 |
| TTA A14T T19G A58C | 0.25 |
| TTC A14T G17C T19C | 0.17 |
| GTA A14T G15C A58G | 0.64 |
| GTA A14T G17A G18C T19A T59G | 0.43 |
| GTA G15T G18A A58G T59G | 0.25 |
| GTA G6A T8A A58C | 0.33 |
| GTT T19C A58G T59A | 0.33 |
| TTA T53A A58C | 0.25 |
| TTA G9T A58G | 0.56 |
| TTA G9T A58C | 0.5 |
| CTA T19C G45T A58C | 0.85 |
| GTA G15A T19A A58G T59G | 0.17 |
| ATA A20T T53A T59C | 0.25 |
| GTA T8A G15T G17T A58G | 0.62 |
| TTA G9A G15T A20G T53G | 0.25 |
| GTA T8C T19A A58G | 0.13 |
| GTA T8C T19A A58T | 0.25 |
| CTA T19A T59C | 0.14 |
| GTA T19A T53A A58G | 0.42 |
| GTA T19A T53A A58C | 0.2 |
| CTA A20T A58G | 0.2 |
| GTA G51A | 0.2 |

| Variant | tRNA 3' processing efficiency |
| --- | --- |
| GTA G15A T59A | 0.56 |
| GTA G50A T53A | 0.4 |
| TTA T8C G9A T19A A58T | 0.43 |
| GTA G17T T19A A20G T59C | 0.5 |
| ATA A20T A58C | 0.25 |
| TTA T19G G38A | 0.4 |
| GTG T19C A20C | 0.25 |
| TTA A58T T59A | 0.17 |
| TTA A58T T59G | 0.07 |
| GTA T8G G15C A20C | 0.13 |
| CTA G9A A14T A58T | 0.25 |
| GTA G15C G17C T19G | 0.43 |
| GTA T8C A14T G18T T19A A58T | 0.4 |
| TTG T59C | 0.4 |
| GTA G17C G18C A58C | 0.25 |
| GTA G15C G17T T53A | 0.25 |
| GTA G9A T53A | 0.25 |
| CTT T8C | 0.4 |
| ATA T19A A58C | 0.4 |
| GTA G15A G17C A20T A58T | 0.14 |
| GTA G1T G2T C3T A20C | 0.2 |
| GTA A14T T19A T59C | 0.25 |
| GTA A14T G22A | 0.2 |
| GTA T11A A58G | 0.08 |
| GTA T8G G15C A58G T59G | 0.3 |
| CTA T19G A58G | 0.5 |

| Variant | tRNA 3' processing efficiency |
| --- | --- |
| CTA T19C T53A | 0.57 |
| GTA G15C T19A A58T | 0.22 |
| GTA G15A T19A A20G A58G | 0.25 |
| ATA G9A T19G A58T | 0.19 |
| GTT A14C G15T G17C | 0.5 |
| TTA G15C T53G | 0.33 |
| CTA T19C A58C | 0.26 |
| GTG T8C T19A T59G | 0.33 |
| CTA C3T A14G A20G | 0.25 |
| GTA A20T G36A | 0.25 |
| TTA A14T T19G | 0.19 |
| GTC T8C A14C A20T | 0.2 |
| GTA G18C G51A | 0.5 |
| GTA G15T G17C A58T | 0.4 |
| TTA G15C A58C T59A | 0.17 |
| TTA T19G A20G | 0.45 |
| GTA G18A T19C A58C | 0.57 |
| TTT T59C | 0.2 |
| GTA G15T G17C A20T A58G | 0.25 |
| CTA G18A T19C A58C | 0.5 |
| GTA G15A G18T T19A T54A | 0.5 |
| GTT T8A G15C | 0.5 |
| TTC T59A | 0.55 |
| TTC T59G | 0.25 |
| GTA T8C A20T | 0.25 |
| TTA A20T T59A | 0.67 |

Variants of: B1
Test: tRNA 5' processing efficiency (processed reads / all reads, maximum-likelihood estimate) (fraction); higher = more efficient 5' processing
Settings: HEK293T; construct: CMV Pol-II promoter ((+)CMV library, decapped)

| Variant | tRNA 5' processing efficiency |
| --- | --- |
| GAA A14T T19G | 0.25 |
| CAA A14T G17C C55A | 0.11 |
| GAA A14T G15C G17C G18A | 0.25 |
| AAA A14C G17C G18C T19A T54C A58T | 0.2 |
| GAA A14T G17T C55G | 0.2 |
| GAA A14G G18C T19G T54C | 0.25 |
| GAA A14T T54A A58C | 0.33 |
| GAA A14G G18T A20G T53A T59G | 0.13 |
| GAA A14C G18A T19G T53A T54G T59A | 0.33 |
| GAA A14G C55A T59G | 0.33 |
| GAA A14G G17C T54G C55A | 0.25 |
| GAA A14T G17C T53A A58T T59C | 0.25 |
| AAA A14G G18T | 0.5 |
| CAA A14T G15A G18T T53G A58G | 0.33 |
| GAA A14C G18C T19A A20T | 0.2 |
| GAA A14T T19A A58T | 0.33 |
| GAA A14T G17T G42A | 0.33 |
| GAA A14T G18A C55T | 0.13 |
| GAA A14T A20T T53A A58T | 0.08 |

As a working copy, part of the list above.

| Variant | tRNA 5' processing efficiency |
| --- | --- |
| GAA A14T T19A A58T | 0.33 |
| GAA A14T G17T G42A | 0.33 |

Additional entries follow:

| Variant | tRNA 5' processing efficiency |
| --- | --- |
| GAA A14T G17C G18C T53G T54C | 0.25 |
| GAA A14C G18T T19A T59A | 0.17 |
| GAA A14C T54G T59G | 0.5 |
| AAA A14C G18A A20T T53G | 0.4 |
| GAA A14G G15A G17T G18A A20G T59G | 0.25 |
| GAA A14T A20G C55T T59G | 0.2 |
| GAA A14G T54C C55T | 0.25 |
| GAA A14T T53G T54G | 0.33 |
| GAA A14T G35A T53G | 0.5 |
| GAA A14C G17C A58G | 0.6 |
| AAA A14G A20C | 0.29 |
| GAA A14T T19A T54G | 0.25 |
| GAA A14T G15C | 0.33 |
| TAA A14C G17T T53G A58T | 0.33 |
| GAA A14G T19C T53A | 0.33 |
| TAA A14T G15T T59G | 0.83 |
| GAA A14C A20C T53G A58T | 0.25 |
| GAA A14G C55T A58T T59G | 0.38 |

Reference: the supplement of paper PMC6445147
